Assay results reported in paper PMC7862700.
The entries are a selection whose mix differs from that of the whole data set. For part of these data: At the low end of the ranking the order means little. The list shows a part of the results. For part of these data: The source does not settle which construct or isoform was used.

Sequences of proteins named here, by UniProt entry; tags and fusion partners are left off. A change or cut given only in a name is not applied to a line headed by its entry.
UniProt P32519: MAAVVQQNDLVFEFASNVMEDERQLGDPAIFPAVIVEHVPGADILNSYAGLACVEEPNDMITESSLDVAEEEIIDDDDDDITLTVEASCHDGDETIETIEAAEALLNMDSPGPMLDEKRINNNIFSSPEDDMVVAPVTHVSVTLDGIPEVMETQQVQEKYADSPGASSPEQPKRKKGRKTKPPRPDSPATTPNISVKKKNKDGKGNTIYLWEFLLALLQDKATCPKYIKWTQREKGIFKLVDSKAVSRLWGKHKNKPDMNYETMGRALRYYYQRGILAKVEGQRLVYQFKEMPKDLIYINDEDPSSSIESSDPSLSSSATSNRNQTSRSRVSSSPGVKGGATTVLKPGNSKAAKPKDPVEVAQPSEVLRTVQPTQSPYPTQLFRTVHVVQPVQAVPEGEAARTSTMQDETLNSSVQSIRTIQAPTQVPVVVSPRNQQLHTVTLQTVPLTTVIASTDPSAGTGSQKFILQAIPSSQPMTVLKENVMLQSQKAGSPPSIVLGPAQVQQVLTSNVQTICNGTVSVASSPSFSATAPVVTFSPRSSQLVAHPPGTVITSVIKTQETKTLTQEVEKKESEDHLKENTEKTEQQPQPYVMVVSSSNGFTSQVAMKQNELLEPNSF
UniProt P50549: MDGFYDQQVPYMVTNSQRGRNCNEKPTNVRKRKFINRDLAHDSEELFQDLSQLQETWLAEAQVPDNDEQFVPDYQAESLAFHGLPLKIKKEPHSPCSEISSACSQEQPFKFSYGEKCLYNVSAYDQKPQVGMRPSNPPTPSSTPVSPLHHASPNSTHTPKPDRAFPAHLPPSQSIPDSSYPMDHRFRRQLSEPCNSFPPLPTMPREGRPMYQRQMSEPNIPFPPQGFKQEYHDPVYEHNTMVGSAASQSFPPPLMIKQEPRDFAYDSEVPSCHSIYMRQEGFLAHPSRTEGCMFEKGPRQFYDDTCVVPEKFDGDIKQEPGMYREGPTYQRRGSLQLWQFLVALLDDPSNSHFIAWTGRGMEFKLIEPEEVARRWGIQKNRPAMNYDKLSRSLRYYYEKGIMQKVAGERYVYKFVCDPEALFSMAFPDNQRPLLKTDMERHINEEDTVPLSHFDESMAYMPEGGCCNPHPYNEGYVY

How the values were obtained:
Assay in all cases: DAPPL (digital affinity profiling via proximity ligation, sequencing)
Conditions in all cases: 10 mM Tris-HCl pH 7.5, 50 mM NaCl, 1 mM DTT, 4% glycerol, room temperature, 30 min; GST-TFs on glutathione beads, 16-mer random dsDNA library, 0.1% …; high values mean tight binding; double strand, one strand shown; scale: fold enrichment (6-mer frequency, TF over GST control)
[1] = target: T1, ERG (UniProt P11308)
T1 sequence: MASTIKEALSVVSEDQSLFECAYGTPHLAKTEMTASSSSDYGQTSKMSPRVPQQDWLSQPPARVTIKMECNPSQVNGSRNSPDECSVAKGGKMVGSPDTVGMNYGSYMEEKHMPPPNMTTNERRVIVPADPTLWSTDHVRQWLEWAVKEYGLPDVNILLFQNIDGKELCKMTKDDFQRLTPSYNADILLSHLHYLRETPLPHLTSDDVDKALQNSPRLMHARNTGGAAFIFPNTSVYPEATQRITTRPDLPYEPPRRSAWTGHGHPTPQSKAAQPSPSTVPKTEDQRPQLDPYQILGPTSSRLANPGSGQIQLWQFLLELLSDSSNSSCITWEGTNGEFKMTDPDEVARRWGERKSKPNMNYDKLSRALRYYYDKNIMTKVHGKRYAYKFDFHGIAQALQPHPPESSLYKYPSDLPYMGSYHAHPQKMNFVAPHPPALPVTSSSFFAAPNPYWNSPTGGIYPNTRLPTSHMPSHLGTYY

[2] = target: ELF1 (UniProt P32519)
[3] = target: T2, ELK4 (UniProt P28324-2)
T2 sequence: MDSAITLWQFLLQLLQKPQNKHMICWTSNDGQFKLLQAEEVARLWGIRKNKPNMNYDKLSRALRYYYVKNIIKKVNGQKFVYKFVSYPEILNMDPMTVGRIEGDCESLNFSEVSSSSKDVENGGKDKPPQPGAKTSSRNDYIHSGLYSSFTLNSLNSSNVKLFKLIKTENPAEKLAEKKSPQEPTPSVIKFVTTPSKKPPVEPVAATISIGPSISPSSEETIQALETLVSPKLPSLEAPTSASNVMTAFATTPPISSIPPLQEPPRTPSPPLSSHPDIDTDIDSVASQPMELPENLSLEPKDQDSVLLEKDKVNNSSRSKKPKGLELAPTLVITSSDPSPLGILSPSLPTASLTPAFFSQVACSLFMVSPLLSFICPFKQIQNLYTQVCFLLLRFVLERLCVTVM

[4] = target: T3, ETV4 (UniProt P43268)
T3 sequence: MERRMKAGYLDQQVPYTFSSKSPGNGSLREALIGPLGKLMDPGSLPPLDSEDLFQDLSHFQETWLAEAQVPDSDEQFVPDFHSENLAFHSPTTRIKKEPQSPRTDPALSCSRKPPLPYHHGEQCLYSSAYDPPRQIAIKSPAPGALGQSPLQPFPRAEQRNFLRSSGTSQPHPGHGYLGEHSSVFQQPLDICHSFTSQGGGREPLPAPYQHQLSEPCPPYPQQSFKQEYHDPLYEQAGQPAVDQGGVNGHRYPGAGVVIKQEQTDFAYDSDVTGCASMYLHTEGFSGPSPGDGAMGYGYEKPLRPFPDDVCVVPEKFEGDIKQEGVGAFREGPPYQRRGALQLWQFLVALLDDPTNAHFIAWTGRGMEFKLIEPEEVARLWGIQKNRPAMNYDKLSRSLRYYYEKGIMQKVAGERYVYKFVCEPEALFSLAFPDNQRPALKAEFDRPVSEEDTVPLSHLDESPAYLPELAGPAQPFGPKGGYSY

[5] = target: ETV1 (UniProt P50549)
[6] = target: T4, ERF (UniProt P50548)
T4 sequence: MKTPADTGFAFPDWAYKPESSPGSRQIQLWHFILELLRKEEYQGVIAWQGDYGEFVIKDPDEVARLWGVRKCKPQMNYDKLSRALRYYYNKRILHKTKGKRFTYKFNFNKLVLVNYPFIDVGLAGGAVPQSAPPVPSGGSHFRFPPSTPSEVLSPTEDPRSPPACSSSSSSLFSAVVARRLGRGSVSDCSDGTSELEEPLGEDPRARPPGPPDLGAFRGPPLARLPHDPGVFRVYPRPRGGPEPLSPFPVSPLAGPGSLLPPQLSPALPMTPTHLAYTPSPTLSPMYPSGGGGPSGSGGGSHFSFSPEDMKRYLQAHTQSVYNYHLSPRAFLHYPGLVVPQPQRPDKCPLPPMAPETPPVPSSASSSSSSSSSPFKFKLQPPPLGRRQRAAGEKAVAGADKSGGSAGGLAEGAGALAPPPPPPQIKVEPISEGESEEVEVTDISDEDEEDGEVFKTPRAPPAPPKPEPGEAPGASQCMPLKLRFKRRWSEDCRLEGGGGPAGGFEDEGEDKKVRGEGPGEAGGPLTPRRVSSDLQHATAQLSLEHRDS

Sequence | binding signal [1] | binding signal [2] | binding signal [3] | binding signal [4] | binding signal [5] | binding signal [6]
GCCAGC | 0.769 | 0.758 | 0.787 | 0.772 | 0.62 | 0.733
GAGCTA | 0.931 | 0.916 | 0.925 | 0.907 | 0.987 | 0.988
GGGGGG | 0.645 | 0.571 | 0.571 | 0.539 | 0.619 | 0.741
GGCCAA | 0.814 | 0.856 | 0.768 | 0.839 | 0.837 | 0.835
CATAGG | 0.792 | 0.718 | 0.702 | 0.768 | 0.692 | 0.8
CAGTCA | 0.493 | 0.499 | 0.463 | 0.472 | 0.542 | 0.561
GGGTGG | 0.769 | 0.829 | 0.845 | 0.794 | 0.672 | 0.778
TCAGGA | 0.887 | 0.799 | 0.8 | 0.802 | 0.849 | 0.724
CCGGGC | 0.826 | 0.837 | 0.995 | 0.823 | 0.917 | 0.731
GCGTAC | 0.907 | 0.915 | 0.945 | 0.932 | 0.927 | 0.905
GGACAG | 0.6 | 0.625 | 0.539 | 0.586 | 0.594 | 0.586
CGGTGC | 0.696 | 0.648 | 0.656 | 0.737 | 0.707 | 0.618
AGCCAG | 0.504 | 0.466 | 0.467 | 0.488 | 0.458 | 0.441
AGAGCC | 0.674 | 0.74 | 0.682 | 0.757 | 0.751 | 0.763
CGGTGG | 0.641 | 0.548 | 0.7 | 0.591 | 0.597 | 0.704
ATCGTG | 0.416 | 0.408 | 0.491 | 0.38 | 0.355 | 0.419
GTCGGC | 0.386 | 0.369 | 0.365 | 0.396 | 0.354 | 0.388
CAGTCC | 0.664 | 0.672 | 0.651 | 0.627 | 0.673 | 0.647
TAGGCG | 0.652 | 0.673 | 0.567 | 0.623 | 0.684 | 0.57
GGCGAA | 0.721 | 0.695 | 0.699 | 0.696 | 0.682 | 0.686
GAGACA | 0.387 | 0.396 | 0.41 | 0.364 | 0.369 | 0.388
CATGTC | 0.837 | 0.833 | 0.811 | 0.837 | 0.833 | 0.875
CCAGTT | 0.702 | 0.631 | 0.615 | 0.621 | 0.614 | 0.628

A different layout for some results above:
Sequence	binding signal [1]	binding signal [2]	binding signal [3]	binding signal [4]	binding signal [5]	binding signal [6]
GAGCTA	0.931	0.916	0.925	0.907	0.987	0.988
TCAGGA	0.887	0.799	0.8	0.802	0.849	0.724
CAGTCC	0.664	0.672	0.651	0.627	0.673	0.647
GAGACA	0.387	0.396	0.41	0.364	0.369	0.388

Next part:

Sequence | binding signal [1] | binding signal [2] | binding signal [3] | binding signal [4] | binding signal [5] | binding signal [6]
GGGGGC | 0.652 | 0.643 | 0.768 | 0.56 | 0.662 | 0.699
AGGGCG | 0.564 | 0.584 | 0.538 | 0.592 | 0.569 | 0.543
AGAGCA | 0.717 | 0.753 | 0.773 | 0.79 | 0.789 | 0.763
AGTGAA | 0.926 | 0.892 | 0.837 | 0.866 | 0.913 | 0.845
GTCAGT | 0.595 | 0.656 | 0.644 | 0.572 | 0.654 | 0.587
AGCAAG | 0.924 | 0.862 | 0.906 | 0.864 | 0.842 | 0.947
GTCGTT | 0.659 | 0.697 | 0.734 | 0.7 | 0.667 | 0.72
GTACCG | 0.753 | 0.736 | 0.729 | 0.777 | 0.823 | 0.638
CAGGTG | 0.543 | 0.56 | 0.603 | 0.547 | 0.583 | 0.581
TGTAGG | 0.818 | 0.798 | 0.779 | 0.799 | 0.721 | 0.848
CAAGAC | 0.875 | 0.849 | 0.839 | 0.837 | 0.855 | 0.924
TTGTCG | 0.779 | 0.824 | 0.976 | 0.792 | 0.924 | 0.914
GAGCAA | 0.774 | 0.755 | 0.736 | 0.744 | 0.749 | 0.813
GTAGAG | 0.602 | 0.573 | 0.618 | 0.607 | 0.525 | 0.615
GAGTGT | 0.56 | 0.574 | 0.548 | 0.534 | 0.474 | 0.572
CAGTGT | 0.681 | 0.717 | 0.72 | 0.708 | 0.653 | 0.766
GGTCGA | 0.78 | 0.703 | 0.761 | 0.829 | 0.768 | 0.778
GAGTCG | 0.235 | 0.234 | 0.234 | 0.209 | 0.233 | 0.248
GCCGTA | 0.837 | 0.871 | 0.8 | 0.807 | 0.838 | 0.805
CAAGGG | 0.908 | 0.909 | 0.901 | 0.877 | 0.914 | 0.945
AGGACA | 0.846 | 0.838 | 0.793 | 0.862 | 0.801 | 0.792
GCATCG | 0.804 | 0.807 | 0.773 | 0.836 | 0.742 | 0.69
CAGAGA | 0.602 | 0.625 | 0.732 | 0.633 | 0.607 | 0.625
